In PubChem BioAssay AID493014 (National Center for Advancing Translational Sciences (NCATS), 2011):
Where “and” joins values, the source holds several entries; their conditions need not be identical. Equal values may be shown once. Hit rate of the full screen: of about 340,000 compounds, about 170 (0.05%) were called active. The inconclusive results got no clear call from the source; some entries with a clear call stand among them for comparison. The call rests on the fitted dose curve; in most records, active means well fitted inhibition curve with a large enough effect in the signal ratio, with a control signal flat (not every such curve was filed as active); inconclusive means small, poorly fitted or top-dose-only effect, or effect the other way, or a change in a side signal; inactive means flat fitted curve, though single readings scatter; the % refers to the signal ratio. Potencies beside an inconclusive call are fits to weak or partial responses and may not hold up.

Assay: qHTS Assay to Find Inhibitors of Chronic Active B-Cell Receptor Signaling;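 on activity change, negative = inhibition: plate controls were basal doxycycline-induced cells for no effect and cells given 10 µM MG132 for full effect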
Settings: ABC-DLBCL IkBa-CBG/CBR reporter, luminescence ratio (green luciferase fused to IkBa over red control in TMD8 lymphoma cells), 4 h; activity change, negative = inhibition: at 46.1 µM (top of the series)
Outline: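 Concentration-response series (up to 46 uM) were applied to TMD8 dual-reporter cells for 4 h at 37C with doxycycline. Green/red ratio, after filter-overlap correction, defined %Activity; red signal alone was normalised to basal cells and zero luminescence.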
Potency means the concentration at half of the fitted maximal effect.

SMILES | activity change, negative = inhibition | Potency
Cc1ccccc1NC(=O)NCCCN1CCN(c2ccccc2)CC1 | inconclusive: 22.6% | –
Cc1c(NC(=S)N/N=C/c2ccc(Br)cc2)c(=O)n(-c2ccccc2)n1C | inconclusive: 13.4% | –
COc1cc(CN2CCc3ccccc3C2)cc([N+](=O)[O-])c1O | inconclusive: 12.1% | –
CN(CCCC(=O)Nc1ccccc1)S(=O)(=O)c1ccc(Cl)cc1 | – | inconclusive: 2.24 µM [falling, partial curve, poor fit]
Cc1ccc2oc(-c3ccc(NC(=O)c4ccncc4)cc3O)nc2c1 | inconclusive: 29.8% | –
O=C(NCCCCc1ccccc1)c1ccccc1F | – | inconclusive: 10 µM [falling, partial curve]
CC(C)NS(=O)(=O)c1ccc(OCC(=O)Nc2ccc3c(c2)OCO3)c(Cl)c1 | inconclusive: 1.95% | –
C/C(CC(=O)Nc1ccc(C)c(Cl)c1)=N\NC(=O)c1ccco1 | – | inconclusive: 22.4 µM [falling, partial curve]
CC(C)(C)c1cc(NC(=O)C2CCCO2)no1 (stereo unspecified) | inconclusive: 8.6% | –
CS(=O)(=NS(=O)(=O)c1ccc(Cl)cc1)c1ccccc1 (stereo unspecified) | inconclusive: 13.3% | –
Cc1cnc(=O)[nH]c1SCC(=O)Nc1nccs1 | inconclusive: 1.25% | –
CN(Cc1ccccc1)c1ncnc(N)c1[N+](=O)[O-] | – | inconclusive: 1.12 µM [falling, full curve, poor fit]
COC(=O)Cc1cc(=O)n(-c2nc3ccccc3s2)[nH]1 | – | inconclusive: 10.3 µM [falling, partial curve, poor fit]
O=c1c(O)c(-c2ccc(O)c(O)c2)oc2cc(O)cc(O)c12 | inconclusive: -13.2% | –
Cc1ccccc1NS(=O)(=O)c1cc(S(C)(=O)=O)ccc1Cl | inconclusive: -3.06% | –
CCOc1ccccc1NC(=S)Nc1ccc2cn[nH]c2c1 | – | inconclusive: 20 µM [falling, single point]
Cc1ccc(N2C(S)=C(C#N)C(=O)NC2c2ccco2)cc1 (stereo unspecified) | inconclusive: -22.1% | –
Cc1cccc(N2CCN(C(=O)C(C)n3nc(C)n4c(cc5occc54)c3=O)CC2)c1C (stereo unspecified) | inactive | –
CCn1cc(C2=NC(CC(C)C)CO2)c2ccccc21 (stereo unspecified) | inconclusive: 7.83% | –
O=C(O)/C=C/C(=O)Nc1ccc(-c2ccccc2)cc1 | – | inconclusive: 25.1 µM [falling, single point] and inconclusive: 35.5 µM [falling, single point]
Cc1cc(C)n2[nH]c(=O)c(N=Nc3cccc(C(F)(F)F)c3)c2n1 | inconclusive: -0.532% | –

SMILES | activity change, negative = inhibition | Potency
COc1ccc(C(NC(C)=O)c2ccc3cccnc3c2O)c(OC)c1 (stereo unspecified) | inactive | –
COc1cccc(NC2CC(=O)N(CCc3ccccc3)C2=O)c1 (stereo unspecified) | inconclusive: -14.2% | –
Cc1ccc(NC(=O)c2ccccn2)c(Br)c1 | inconclusive: 8.09% | –
O=C(COC(=O)c1ccc(S(=O)(=O)N2CCCCC2)cc1)Nc1ccccc1Cl | inactive | –
C/C(Cn1cnc([N+](=O)[O-])n1)=N\NC(=O)c1ccc(F)cc1 | – | inconclusive: 4.61 µM [falling, single point]
CC(Sc1ccc(Cl)cc1)C(=O)Nc1ccccc1C(=O)N1CCOCC1 (stereo unspecified) | inconclusive: 4.99% | –
O=c1cc(-c2ccco2)oc2ccc(Cl)cc12 | inconclusive: 12.7% | –
COc1cccc(-n2c(SCc3ccccn3)nc3c(c2=O)SCC3)c1 | inconclusive: -2.39% | –
Oc1ccccc1-c1cc(-c2ccccc2)no1 | – | inconclusive: 35.5 µM [rising, single point]
Brc1cc2c(cc1/C=N/Nc1nc(N3CCCCC3)nc(N3CCCCC3)n1)OCO2 | – | inconclusive: 20 µM [falling, partial curve]
CCCSC1=N/C(=C\C=C\c2ccco2)C(=O)S1 | inactive | –
O=C(CCCCl)Oc1ccc2cc(-c3ccc4ccccc4n3)c(=O)oc2c1 | inactive | –
O=Nc1c(O)n(Cc2c(Cl)cccc2Cl)c2ccccc12 | inconclusive: -4.2% | –
O=C(c1ccc2c(c1)OCO2)C1CCCN(Cc2cc(F)ccc2-n2cccn2)C1 (stereo unspecified) | inactive | –
Clc1cccc(-c2nn3c(-c4cccc(Cl)c4)nnc3s2)c1 | inactive | –
CN(C)c1ccc(/C=C2\SC(N3CCCCC3)=NC2=O)cc1 | inconclusive: 5.42% | –
CSc1ccccc1NC(=O)c1cccc(S(=O)(=O)N2CCN(C)CC2)c1 | inconclusive: -7.49% | –
O=C(O)CC/C(=N\NC(=O)c1ccccc1Br)c1ccccc1 | – | inconclusive: 23.1 µM [falling, partial curve]
Nc1c(C(=O)c2ccc(Cl)cc2)sc2nc3c(cc12)CCC3 | – | inconclusive: 5.17 µM [falling, full curve]
N#CC(C#N)=C1C(=O)N(CCN2CCOCC2)c2ccccc21 | inconclusive: -16% | –
COc1ccc(N2CC(C)Cn3c2nc2c3c(=O)n(Cc3ccccc3F)c(=O)n2C)c(OC)c1 (stereo unspecified) | inconclusive: -7.82% | –

SMILES | activity change, negative = inhibition | Potency
Cc1c(NC(=O)c2cccc(NC(=O)Cc3ccc(Cl)cc3)c2)c(=O)n(-c2ccccc2)n1C | inconclusive: -4.7% | –
COc1ccc(C(=O)Nc2cc([N+](=O)[O-])ccc2N2CCN(C)CC2)cc1 | inconclusive: -0.19% | –
CCc1ccc(-c2cc(C)no2)cc1S(=O)(=O)NCc1ccco1 | inactive | –
CC(=O)Nc1ccc(Oc2ccccc2)cc1 | – | inconclusive: 25.1 µM [falling, single point]
Cc1ccc(C(=O)N/N=C(/CC(=O)c2cccs2)C(F)(F)F)cc1 | inconclusive: -7.75% | –
Cc1cccc(C(=O)NCC(=O)OCC(=O)N(C)CC(=O)Nc2ccccc2Cl)c1 | inconclusive: 8.54% | –
O=C(Nc1cccc2ccccc12)N1CCN(c2ncccn2)CC1 | – | inconclusive: 22.4 µM [falling, single point]
COC(=O)C1CCN(C(=O)COC(=O)/C=C/c2ccc(O)c(OC)c2)CC1 | – | inconclusive: 25.9 µM [falling, single point]
CC/C(C)=N/N1C(=O)c2ccccc2NC1(C)CC (stereo unspecified) | inconclusive: -13.7% | –
COc1ccc(Cl)cc1NC(=O)COC(=O)c1ccc(Br)o1 | inconclusive: 2.31% | –
Nc1ccc(N2CCN(c3ccc(Cl)c(Cl)c3)CC2)cc1 | inactive | –
CCOC(OCC)c1cc2ccccc2cn1 | – | inconclusive: 29.1 µM [falling, single point]
CCOC(=O)c1ccc(NC(=S)NCCc2ccccc2)cc1 | – | inconclusive: 0.631 µM [falling, full curve]
Cc1csc(NC(=O)CSc2nnc(Cc3cccn3C)n2CCc2ccccc2)n1 | inconclusive: 11.2% | –
CN1CCN(CC(=O)Nc2nnc(-c3cccs3)s2)CC1 | inactive | –
CC(=O)Nc1cccc(C(=O)OCC(=O)NC2CCCCCCC2)c1 | inconclusive: -2.47% | –
COc1ccc(CNc2ncnc3sccc23)cc1OC | inactive | –
Cc1ccccc1OCC(=O)NNC(=O)c1ccoc1C | inconclusive: 0.107% | –
COc1ccc2[nH]c(C)c(CCNC(=S)Nc3cc(C)cc(C)c3)c2c1 | inconclusive: 16% | –
CN=C(N)NC(=O)Nc1c(C)cccc1C | – | inconclusive: 12.6 µM [falling, partial curve, poor fit]
CCc1nc2ccc(C(=O)NCc3ccccc3C)cc2nc1CC | inactive | –

SMILES | activity change, negative = inhibition | Potency
CCCNC(=O)c1ccc(-c2nc3ccccc3s2)s1 | – | inconclusive: 0.0206 µM [rising, full curve, poor fit]
C=C(C)C(=O)Nc1cccc(C2=NOC3(C2)C[C@H](C(N)=O)N(C(=O)C(c2ccccc2)c2ccccc2)C3)c1 (stereo partly specified) | inconclusive: -4.19% | –
COc1ccc(CCNC(=O)c2ccc3c(c2)N(Cc2ccccc2Cl)C(=O)c2ccccc2S3)cc1OC | inconclusive: 9.53% | –
O=C(NCc1nnnn1-c1ccc(F)c(F)c1)C(=O)c1c[nH]c2ccccc12 | – | inconclusive: 18.4 µM [falling, single point]
O=C(O)c1nccnc1C(=O)Nc1ccc(Cl)cn1 | inactive | –
Cc1cc(NC(=O)NCC(F)(F)F)no1 | inactive | –
Cc1cc(C)nc(/N=C2\NC(=O)CC(C(=O)O)N2c2ccc(C)c(C)c2)n1 (stereo unspecified) | inactive | –
O=C(CN1CCN(c2ccccc2)CC1)NC(=O)NCc1ccccc1 | inconclusive: -0.0202% | –
Cc1cc(C)n2cc(CSCc3ccco3)nc2n1 | inconclusive: 8.67% | –
COc1ccc(C(=O)COC(=O)Cn2[nH]c(=O)c3ccccc3c2=O)c(OC)c1 | inconclusive: 7.01% | –
C=CCn1c(C)cc(C(=O)COC(=O)c2ccc(N)c([N+](=O)[O-])c2)c1C | – | inconclusive: 20.6 µM [falling, single point]
C#CCOCCOCCOCCNc1nc(N2CCN(C(=O)[C@H]([C@@H](C)CC)n3cc([C@@H](N)CO)nn3)CC2)nc(N2CCN(C(=O)[C@H](CCCCN)n3cc([C@@H](N)CC(C)C)nn3)CC2)n1 | inconclusive: 10.4% | –
O=S(=O)(CCc1nc2ccccc2[nH]1)c1ccc(Cl)cc1 | inconclusive: 1.02% | –
CN(C)CCCNC(=O)c1cc2sc3ccccc3c2s1 | inconclusive: -23.9% | –
Cc1ccn(C(=O)c2ccc(NC(=O)C3CC3)cc2)n1 | – | inconclusive: 3.98 µM [rising, partial curve, poor fit]
CN1CCN(NC(=O)/C=C/c2cccc([N+](=O)[O-])c2)CC1 | inactive | –
C[C@]12c3[nH]c4ccc(Cl)cc4c3CCN1C(=O)[C@@H](CC(=O)NCCN1CCOCC1)C[C@@H]2C(=O)N1CCOCC1 | inconclusive: 3.35% | –
COc1ccc(C)cc1NC(=O)c1cc2ccccc2o1 | inconclusive: 4.59% | –

For convenience, some entries already given:
SMILES | activity change, negative = inhibition | Potency
Cc1ccc(NC(=O)c2ccccn2)c(Br)c1 | inconclusive: 8.09% | –
O=C(COC(=O)c1ccc(S(=O)(=O)N2CCCCC2)cc1)Nc1ccccc1Cl | inactive | –
C/C(Cn1cnc([N+](=O)[O-])n1)=N\NC(=O)c1ccc(F)cc1 | – | inconclusive: 4.61 µM [falling, single point]
CC(Sc1ccc(Cl)cc1)C(=O)Nc1ccccc1C(=O)N1CCOCC1 (stereo unspecified) | inconclusive: 4.99% | –
